These are yes or no findings as the source states them, for the method shown. Binding seen in cells or lysates may run through a third protein. Some results given as binding are weak or reduced against the parent protein; the word gives no strength.
Target: T1, O-GlcNAc transferase (OGT) (human (endogenous in Hep3B and Huh7)) (UniProt O15294)
T1 sequence: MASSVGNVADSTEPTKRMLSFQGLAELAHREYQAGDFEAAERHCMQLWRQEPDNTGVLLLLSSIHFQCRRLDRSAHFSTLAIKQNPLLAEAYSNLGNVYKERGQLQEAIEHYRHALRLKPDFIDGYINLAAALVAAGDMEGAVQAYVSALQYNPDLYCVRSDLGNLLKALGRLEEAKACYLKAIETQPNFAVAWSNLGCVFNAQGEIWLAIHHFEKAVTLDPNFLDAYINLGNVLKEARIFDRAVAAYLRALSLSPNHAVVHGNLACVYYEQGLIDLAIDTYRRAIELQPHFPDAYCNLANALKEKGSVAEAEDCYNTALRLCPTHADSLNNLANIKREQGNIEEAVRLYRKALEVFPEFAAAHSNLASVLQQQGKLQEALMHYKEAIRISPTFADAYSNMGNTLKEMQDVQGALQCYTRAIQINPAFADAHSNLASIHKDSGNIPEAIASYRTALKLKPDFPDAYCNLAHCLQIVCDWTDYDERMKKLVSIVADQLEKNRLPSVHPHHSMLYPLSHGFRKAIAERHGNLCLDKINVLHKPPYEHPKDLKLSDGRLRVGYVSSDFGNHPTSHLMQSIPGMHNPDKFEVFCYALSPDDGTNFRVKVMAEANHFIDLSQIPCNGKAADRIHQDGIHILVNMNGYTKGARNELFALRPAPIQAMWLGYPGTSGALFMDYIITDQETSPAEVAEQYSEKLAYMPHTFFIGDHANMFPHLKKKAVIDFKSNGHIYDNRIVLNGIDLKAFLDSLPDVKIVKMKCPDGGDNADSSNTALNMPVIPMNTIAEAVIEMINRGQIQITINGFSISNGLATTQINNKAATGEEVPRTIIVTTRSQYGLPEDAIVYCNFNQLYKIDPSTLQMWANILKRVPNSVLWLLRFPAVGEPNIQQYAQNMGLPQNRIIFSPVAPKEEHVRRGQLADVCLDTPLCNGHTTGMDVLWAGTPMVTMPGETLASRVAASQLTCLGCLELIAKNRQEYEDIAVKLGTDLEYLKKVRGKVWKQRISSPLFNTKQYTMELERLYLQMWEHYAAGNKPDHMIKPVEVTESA
Test: co-IP; endogenous proteins in HCC cell lysates; antibodies (anti-RALY, anti-OGT, anti-TRIM27 or IgG) on rProtein A/G magnetic beads, lysate overnight at 4°C, three washes, western blot; for RALY-TRIM27 also cells with or without TMG

Protein sequences, listed by entry. Tags and fused reporters are not part of them.
UniProt Q9UKM9: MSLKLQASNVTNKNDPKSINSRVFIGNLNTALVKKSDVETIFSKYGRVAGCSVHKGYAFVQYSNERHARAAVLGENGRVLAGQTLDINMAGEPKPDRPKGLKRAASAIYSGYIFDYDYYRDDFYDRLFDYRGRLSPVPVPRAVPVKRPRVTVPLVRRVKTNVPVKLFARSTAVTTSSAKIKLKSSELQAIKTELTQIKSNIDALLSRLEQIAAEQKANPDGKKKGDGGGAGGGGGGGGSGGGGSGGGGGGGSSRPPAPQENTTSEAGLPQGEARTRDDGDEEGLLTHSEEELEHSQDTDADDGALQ

Substance: RALY (from UniProt Q9UKM9 1-306)
- binding: binds

Reference: PMC11234212
